# From article PMC10239507, “Development of allosteric and selective CDK2 inhibitors for contraception with negative cooperativity to cyclin binding” (Nature Communications, 2023)
# Test system: OVCAR-3 cells
# Experiment: Cytotoxicity assay (Pharmaron)
smiles,measurement,value
CN[C@@H]1C[C@H]2O[C@@](C)([C@@H]1OC)n1c3ccccc3c3c4c(c5c6ccccc6n2c5c31)C(=O)NC4 [staurosporine],IC50,low nanomolar range
